In PMC8315068:
Results are given in words; binding and its absence hold for the method and conditions named. For some of these results: In cells and extracts the contact can be indirect. Some entries that bind do so weakly or less than the wild type. For some of these results: Sequences can lack the tags named with a protein.

Chains of the proteins cited; added tags and fusions are not shown.
UniProt P04150: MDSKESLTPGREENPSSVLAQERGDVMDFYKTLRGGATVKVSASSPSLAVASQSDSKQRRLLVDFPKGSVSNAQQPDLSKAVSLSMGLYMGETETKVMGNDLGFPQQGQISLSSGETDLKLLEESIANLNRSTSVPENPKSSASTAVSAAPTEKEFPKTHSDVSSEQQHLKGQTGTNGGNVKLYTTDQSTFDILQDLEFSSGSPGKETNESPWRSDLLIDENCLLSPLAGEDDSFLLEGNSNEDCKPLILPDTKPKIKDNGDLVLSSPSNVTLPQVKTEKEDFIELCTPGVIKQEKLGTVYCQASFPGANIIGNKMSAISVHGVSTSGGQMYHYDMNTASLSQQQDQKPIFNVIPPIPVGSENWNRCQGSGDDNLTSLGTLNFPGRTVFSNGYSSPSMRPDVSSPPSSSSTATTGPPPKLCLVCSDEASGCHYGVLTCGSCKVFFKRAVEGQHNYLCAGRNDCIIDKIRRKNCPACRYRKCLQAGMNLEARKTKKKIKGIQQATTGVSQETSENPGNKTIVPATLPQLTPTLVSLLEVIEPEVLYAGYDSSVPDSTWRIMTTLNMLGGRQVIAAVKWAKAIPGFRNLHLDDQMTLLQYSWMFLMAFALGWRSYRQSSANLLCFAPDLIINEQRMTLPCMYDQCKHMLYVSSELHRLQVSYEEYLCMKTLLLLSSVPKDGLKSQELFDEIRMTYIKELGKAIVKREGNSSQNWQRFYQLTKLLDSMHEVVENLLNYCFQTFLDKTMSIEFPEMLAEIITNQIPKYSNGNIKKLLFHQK
UniProt P06537: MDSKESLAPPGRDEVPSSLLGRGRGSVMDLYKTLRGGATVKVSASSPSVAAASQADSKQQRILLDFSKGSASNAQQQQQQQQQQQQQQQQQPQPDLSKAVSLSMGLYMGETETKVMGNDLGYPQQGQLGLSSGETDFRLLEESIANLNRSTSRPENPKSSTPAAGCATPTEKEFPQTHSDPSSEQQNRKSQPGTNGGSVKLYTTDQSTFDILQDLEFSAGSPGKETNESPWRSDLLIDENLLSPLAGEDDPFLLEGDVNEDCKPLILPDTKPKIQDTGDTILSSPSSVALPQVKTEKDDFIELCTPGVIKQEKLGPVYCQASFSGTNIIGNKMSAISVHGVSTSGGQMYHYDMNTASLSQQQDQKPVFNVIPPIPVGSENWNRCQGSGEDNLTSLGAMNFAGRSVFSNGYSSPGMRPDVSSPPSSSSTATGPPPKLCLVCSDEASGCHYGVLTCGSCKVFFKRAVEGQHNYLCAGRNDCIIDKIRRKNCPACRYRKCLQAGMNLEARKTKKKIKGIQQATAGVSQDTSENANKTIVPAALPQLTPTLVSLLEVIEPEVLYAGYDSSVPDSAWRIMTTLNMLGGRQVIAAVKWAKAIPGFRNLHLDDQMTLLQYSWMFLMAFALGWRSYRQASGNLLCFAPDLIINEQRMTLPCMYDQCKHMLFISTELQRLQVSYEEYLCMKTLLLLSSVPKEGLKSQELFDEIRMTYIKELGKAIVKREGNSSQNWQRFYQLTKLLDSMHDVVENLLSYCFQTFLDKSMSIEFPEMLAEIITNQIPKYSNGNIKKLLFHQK
UniProt P40763: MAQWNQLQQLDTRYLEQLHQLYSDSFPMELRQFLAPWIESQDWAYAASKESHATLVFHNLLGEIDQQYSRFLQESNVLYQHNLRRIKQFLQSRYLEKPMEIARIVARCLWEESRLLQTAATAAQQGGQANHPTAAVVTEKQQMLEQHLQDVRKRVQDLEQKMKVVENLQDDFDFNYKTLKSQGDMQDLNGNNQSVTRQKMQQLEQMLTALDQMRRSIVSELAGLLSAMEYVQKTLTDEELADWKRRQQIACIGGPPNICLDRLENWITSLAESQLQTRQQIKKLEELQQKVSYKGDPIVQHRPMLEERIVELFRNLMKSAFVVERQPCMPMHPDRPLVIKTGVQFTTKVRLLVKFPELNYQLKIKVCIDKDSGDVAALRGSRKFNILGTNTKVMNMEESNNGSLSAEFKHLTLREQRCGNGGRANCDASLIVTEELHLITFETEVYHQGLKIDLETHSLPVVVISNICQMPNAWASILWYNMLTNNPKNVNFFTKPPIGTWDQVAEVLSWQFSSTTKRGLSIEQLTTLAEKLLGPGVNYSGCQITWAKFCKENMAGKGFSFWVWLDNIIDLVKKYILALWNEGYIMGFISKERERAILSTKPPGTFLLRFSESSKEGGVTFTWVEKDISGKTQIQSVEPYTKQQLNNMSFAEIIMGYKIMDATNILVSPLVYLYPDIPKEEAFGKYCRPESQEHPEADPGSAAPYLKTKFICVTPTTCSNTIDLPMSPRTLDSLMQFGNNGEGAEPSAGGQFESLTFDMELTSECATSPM

Tests used:
[1] = target: T1, Twist1 protein (TW1), endogenous in mouse colon neutrophils (mouse (endogenous in colon neutrophils of BALB/c mice)) (UniProt P26687); experiment: co-IP; protein extracts of colon neutrophils of mice treated with hypoxia for one week; Western blot
T1 sequence: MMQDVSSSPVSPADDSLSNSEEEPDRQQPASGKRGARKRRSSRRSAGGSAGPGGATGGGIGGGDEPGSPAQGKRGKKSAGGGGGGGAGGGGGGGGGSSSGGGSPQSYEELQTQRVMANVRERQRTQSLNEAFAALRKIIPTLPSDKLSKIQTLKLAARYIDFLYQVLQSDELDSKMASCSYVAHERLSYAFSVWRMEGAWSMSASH

[2] = target: recombinant (r) GR (glucocorticoid receptor) (UniProt P04150); experiment: ELISA; competitive ELISA: plate coated with rGR (10 µg/ml); rCortisol-His (1 µg/ml) mixed with rTW1 (from 1 µg/ml, 1:50 to 1:3200), 37 °C 1 h; HRP anti-His Ab, absorbance at 450 nm; both purified
[3] = target: T2, recombinant (r) RASAL1 with His tag (UniProt O95294); experiment: ELISA; competitive ELISA: plate coated with rRas (10 µg/ml, pH 9.6 coating buffer); rRASAL1-His (1 µg/ml) mixed with rSTAT3 (1:50 to 1:3200), 37 °C 1 h; HRP anti-His Ab, absorbance at 450 nm; both purified
T2 sequence: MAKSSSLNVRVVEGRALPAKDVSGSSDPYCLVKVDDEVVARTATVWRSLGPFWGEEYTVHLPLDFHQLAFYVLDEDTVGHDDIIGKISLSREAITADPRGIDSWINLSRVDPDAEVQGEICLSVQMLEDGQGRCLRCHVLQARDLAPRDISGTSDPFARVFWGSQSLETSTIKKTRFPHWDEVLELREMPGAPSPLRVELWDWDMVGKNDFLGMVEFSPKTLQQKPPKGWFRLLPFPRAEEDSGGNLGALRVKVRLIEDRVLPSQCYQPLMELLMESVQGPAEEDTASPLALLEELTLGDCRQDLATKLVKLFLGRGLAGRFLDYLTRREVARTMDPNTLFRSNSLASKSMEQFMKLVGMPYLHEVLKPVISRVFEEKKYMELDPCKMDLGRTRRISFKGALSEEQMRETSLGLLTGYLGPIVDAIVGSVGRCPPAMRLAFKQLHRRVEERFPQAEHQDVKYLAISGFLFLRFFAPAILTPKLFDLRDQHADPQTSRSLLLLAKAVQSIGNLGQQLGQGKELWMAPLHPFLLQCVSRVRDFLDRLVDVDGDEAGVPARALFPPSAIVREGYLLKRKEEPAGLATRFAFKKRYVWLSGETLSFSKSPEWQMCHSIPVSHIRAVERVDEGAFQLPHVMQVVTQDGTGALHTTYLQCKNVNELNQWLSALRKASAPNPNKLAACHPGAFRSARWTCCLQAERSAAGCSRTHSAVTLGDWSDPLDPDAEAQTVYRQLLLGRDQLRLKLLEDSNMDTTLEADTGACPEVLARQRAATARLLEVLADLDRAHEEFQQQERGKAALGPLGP

[4] = target: T3, Ras Protein Activator Like 1 (RASAL1), endogenous in human colon neutrophils (human (endogenous in colon neutrophils of UC patients)) (UniProt O95294); experiment: co-IP; protein extracts of neutrophils; anti-STAT3 Ab or anti-RASAL1 Ab as the precipitating Ab, Western blot
T3 sequence: T2 sequence

[5] = target: Twist1 protein (TW1), endogenous in cells isolated from human colon tissue (human (endogenous in colon tissue cells of patients)) (UniProt Q15672); experiment: co-IP; T cells isolated from CR UC colon samples (Figure S6)
[6] = target: Twist1 protein (TW1), endogenous in cells isolated from human colon tissue (human (endogenous in colon tissue cells of patients)) (UniProt Q15672); experiment: co-IP; eosinophils isolated from CR UC colon samples (Figure S6)
[7] = target: Twist1 protein (TW1), endogenous in cells isolated from human colon tissue (human (endogenous in colon tissue cells of patients)) (UniProt Q15672); experiment: co-IP; B cells isolated from CR UC colon samples (Figure S6)
[8] = target: Twist1 protein (TW1), endogenous in cells isolated from human colon tissue (human (endogenous in colon tissue cells of patients)) (UniProt Q15672); experiment: co-IP; protein extracts of colon neutrophils of CR UC patients (pooled, n = 19); antibodies of GRα or TW1 as precipitation Ab, protein G agarose beads, Western blot
[9] = target: Twist1 protein (TW1), endogenous in cells isolated from human colon tissue (human (endogenous in colon tissue cells of patients)) (UniProt Q15672); experiment: co-IP; protein extracts of colon neutrophils of NC (non-UC control) subjects (pooled, n = 8); antibodies of GRα or TW1 as precipitation Ab, protein G agarose beads, Western blot
[10] = target: Twist1 protein (TW1), endogenous in cells isolated from human colon tissue (human (endogenous in colon tissue cells of patients)) (UniProt Q15672); experiment: co-IP; protein extracts of colon neutrophils of CS UC patients (pooled, n = 12); antibodies of GRα or TW1 as precipitation Ab, protein G agarose beads, Western blot

Which binding [1] does the source give for “glucocorticoid receptor α (GRα), endogenous in mouse colon neutrophils (from UniProt P06537 1-792)” here?
The binding was “binds”.

Which binding [2] does the source give for “recombinant (r) TW1 (from UniProt Q15672 1-202)” here?
Its binding is “binds”.

For “recombinant (r) STAT3 (from UniProt P40763 1-770)”, which binding [3] is on record?
The binding was “binds”.

For “STAT3 (Signal Transducer and Activator of Transcription-3), endogenous in human colon neutrophils (from UniProt P40763 1-770)”, which binding [4] is on record?
The binding was “binds”.

Which binding [5] does the source give for “glucocorticoid receptor (GR)α, endogenous in cells isolated from human colon tissue (from UniProt P04150 1-777)” here?
Its binding is “no binding (condition: T cells of CR UC colon samples)”.

And the binding [6]?
Its binding is “no binding (condition: eosinophils of CR UC colon samples)”.

And the binding [7]?
The binding was “no binding (condition: B cells of CR UC colon samples)”.

What about the binding [8] of the same substance?
The binding was “binds”.

What about the binding [9] of the same substance?
Its binding is “no binding (condition: neutrophils of the NC group)”.

What about the binding [10] of the same substance?
Its binding is “no binding (condition: neutrophils of the CS group)”.
